# Test results: paper PMC5642495, “Characterization of a novel androgen receptor (AR) coregulator RIPK1 and related chemicals that suppress AR-mediated prostate cancer growth via peptide and chemical screening” (Oncotarget, 2017)
# Sequences of proteins named here, by UniProt entry; tags and fusion partners are left off.
# UniProt P10275: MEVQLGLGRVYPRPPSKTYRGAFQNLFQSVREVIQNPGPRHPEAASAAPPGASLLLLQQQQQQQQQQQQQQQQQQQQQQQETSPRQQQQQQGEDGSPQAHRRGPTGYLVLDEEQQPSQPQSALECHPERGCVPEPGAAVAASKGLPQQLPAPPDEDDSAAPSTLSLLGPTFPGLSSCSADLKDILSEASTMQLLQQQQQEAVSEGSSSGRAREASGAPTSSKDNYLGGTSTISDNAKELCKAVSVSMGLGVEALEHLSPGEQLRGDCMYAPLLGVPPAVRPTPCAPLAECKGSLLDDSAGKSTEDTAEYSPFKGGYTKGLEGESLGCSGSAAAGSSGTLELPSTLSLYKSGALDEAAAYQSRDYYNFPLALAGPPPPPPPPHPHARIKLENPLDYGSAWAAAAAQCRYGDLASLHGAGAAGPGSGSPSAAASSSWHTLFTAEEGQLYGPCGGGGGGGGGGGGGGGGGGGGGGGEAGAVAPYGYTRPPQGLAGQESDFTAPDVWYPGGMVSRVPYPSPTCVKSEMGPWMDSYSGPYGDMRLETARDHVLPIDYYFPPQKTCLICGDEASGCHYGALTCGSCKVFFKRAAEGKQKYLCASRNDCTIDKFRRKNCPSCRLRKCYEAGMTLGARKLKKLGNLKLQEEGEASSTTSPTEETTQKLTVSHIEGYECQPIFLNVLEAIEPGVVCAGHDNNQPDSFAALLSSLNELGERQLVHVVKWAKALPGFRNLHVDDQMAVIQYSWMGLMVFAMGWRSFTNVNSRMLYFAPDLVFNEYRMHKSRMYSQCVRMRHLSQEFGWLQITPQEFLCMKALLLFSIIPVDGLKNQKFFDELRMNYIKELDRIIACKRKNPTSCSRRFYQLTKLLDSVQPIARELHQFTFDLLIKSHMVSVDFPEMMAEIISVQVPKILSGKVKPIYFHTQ
# UniProt Q13546: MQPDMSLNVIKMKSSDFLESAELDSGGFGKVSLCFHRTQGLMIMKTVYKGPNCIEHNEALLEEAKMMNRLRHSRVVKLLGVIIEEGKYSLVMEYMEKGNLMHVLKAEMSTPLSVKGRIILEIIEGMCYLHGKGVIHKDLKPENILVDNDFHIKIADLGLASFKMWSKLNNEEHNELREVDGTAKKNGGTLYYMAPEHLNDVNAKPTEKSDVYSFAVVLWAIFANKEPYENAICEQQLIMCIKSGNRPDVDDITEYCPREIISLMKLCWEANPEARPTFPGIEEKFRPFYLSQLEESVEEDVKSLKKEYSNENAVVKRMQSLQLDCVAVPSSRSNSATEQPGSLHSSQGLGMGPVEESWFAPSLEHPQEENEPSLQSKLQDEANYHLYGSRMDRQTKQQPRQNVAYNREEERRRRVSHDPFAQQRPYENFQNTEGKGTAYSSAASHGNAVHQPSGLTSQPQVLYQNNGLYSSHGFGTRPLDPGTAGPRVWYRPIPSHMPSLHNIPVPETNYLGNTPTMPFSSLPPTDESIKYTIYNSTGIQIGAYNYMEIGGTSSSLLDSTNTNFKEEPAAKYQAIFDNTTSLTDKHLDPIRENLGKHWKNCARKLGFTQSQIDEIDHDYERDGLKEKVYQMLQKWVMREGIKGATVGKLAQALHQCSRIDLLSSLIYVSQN
# No constants are given. Whether binding was seen depends on the method and setting. For part of these data: Binding seen in cells or lysates may run through a third protein. Some results given as binding are weak or reduced against the parent protein; the word gives no strength.
# Assays:
# [1] = molecular target: 3xFlag-AR (androgen receptor, co-IP) (human) (UniProt P10275); test: co-IP; extracts of 293T cells overexpressing 3xFlag-RIPK1 and 3xFlag-AR, treated with 1 mM DHT (so in the source); IP with anti-AR (C19) or anti-RIPK1 antibody, normal rabbit serum as negative control; immunoblot for AR or RIPK1
# [2] = molecular target: full-length AR (GST pull-down assay) (human) (UniProt P10275); test: pull-down; GST pull-down; which partner carried GST and the conditions are not told (refs 8, 16)
# [3] = molecular target: VP16-AR (wild-type androgen receptor, pCMX-VP16-AR) (human) (UniProt P10275); test: two-hybrid; mammalian two-hybrid in PC-3 cells: 350 ng GAL4-DBD fusion, 350 ng VP16-AR, 300 ng pG5-Luc; ethanol, 10 nM DHT, or 0.01-10 µM HWC-489 or LHJ-647 for 16 h
molecule,measurement,setting,value
3xFlag-RIPK1 (receptor-interacting protein kinase 1) (from UniProt Q13546 1-671) (enzyme),binding,[1],binds
RIPK1 (as used in the GST pull-down assay) (from UniProt Q13546 1-671) (enzyme),binding,[2],binds
"NTNAFSRLFYPS [#3-18 peptide (No. 12, positive control; GAL4-DBD-3-18)]",binding,[3],binds
